In the supplement of paper PMC10849652:
The other results are listed elsewhere or left out.

Amino acid sequences for entries named in this document (tags omitted). A change or cut given only in a name is not applied to a line headed by its entry.
UniProt Q9HA92: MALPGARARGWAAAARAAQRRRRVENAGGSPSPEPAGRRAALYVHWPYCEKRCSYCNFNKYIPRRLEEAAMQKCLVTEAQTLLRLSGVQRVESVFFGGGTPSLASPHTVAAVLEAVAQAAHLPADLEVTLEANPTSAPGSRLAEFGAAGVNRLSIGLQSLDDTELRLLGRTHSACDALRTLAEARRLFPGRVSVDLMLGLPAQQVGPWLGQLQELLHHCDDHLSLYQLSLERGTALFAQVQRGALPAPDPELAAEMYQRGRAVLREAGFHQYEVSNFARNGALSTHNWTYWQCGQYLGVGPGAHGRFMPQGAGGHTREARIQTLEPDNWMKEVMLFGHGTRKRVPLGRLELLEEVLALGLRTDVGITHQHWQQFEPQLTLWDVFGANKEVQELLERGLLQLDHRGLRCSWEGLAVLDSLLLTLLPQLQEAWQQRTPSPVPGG
UniProt Q9HCY8: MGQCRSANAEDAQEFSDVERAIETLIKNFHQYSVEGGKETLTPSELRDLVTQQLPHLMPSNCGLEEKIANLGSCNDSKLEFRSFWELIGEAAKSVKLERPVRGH
UniProt P23921: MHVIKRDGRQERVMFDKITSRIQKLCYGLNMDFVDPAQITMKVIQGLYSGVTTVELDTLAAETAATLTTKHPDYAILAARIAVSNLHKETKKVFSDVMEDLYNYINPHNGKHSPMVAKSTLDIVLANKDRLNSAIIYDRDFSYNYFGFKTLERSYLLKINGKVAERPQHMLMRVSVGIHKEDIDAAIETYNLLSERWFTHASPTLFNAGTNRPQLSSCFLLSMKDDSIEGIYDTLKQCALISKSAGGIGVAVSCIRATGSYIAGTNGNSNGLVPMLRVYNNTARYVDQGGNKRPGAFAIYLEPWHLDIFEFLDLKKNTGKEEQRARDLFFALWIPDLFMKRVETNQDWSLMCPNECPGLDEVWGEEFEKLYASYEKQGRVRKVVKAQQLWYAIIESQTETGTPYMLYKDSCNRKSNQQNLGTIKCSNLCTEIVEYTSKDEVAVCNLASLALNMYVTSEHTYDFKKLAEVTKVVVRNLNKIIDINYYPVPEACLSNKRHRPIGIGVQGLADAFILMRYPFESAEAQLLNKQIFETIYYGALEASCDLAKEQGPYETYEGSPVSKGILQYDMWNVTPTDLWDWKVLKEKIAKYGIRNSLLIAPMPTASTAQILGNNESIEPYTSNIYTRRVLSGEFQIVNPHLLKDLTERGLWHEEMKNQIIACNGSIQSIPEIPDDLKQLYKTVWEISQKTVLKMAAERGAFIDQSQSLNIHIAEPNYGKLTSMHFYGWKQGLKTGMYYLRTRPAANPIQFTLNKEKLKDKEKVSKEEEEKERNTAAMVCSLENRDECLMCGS
UniProt Q9Y3I0: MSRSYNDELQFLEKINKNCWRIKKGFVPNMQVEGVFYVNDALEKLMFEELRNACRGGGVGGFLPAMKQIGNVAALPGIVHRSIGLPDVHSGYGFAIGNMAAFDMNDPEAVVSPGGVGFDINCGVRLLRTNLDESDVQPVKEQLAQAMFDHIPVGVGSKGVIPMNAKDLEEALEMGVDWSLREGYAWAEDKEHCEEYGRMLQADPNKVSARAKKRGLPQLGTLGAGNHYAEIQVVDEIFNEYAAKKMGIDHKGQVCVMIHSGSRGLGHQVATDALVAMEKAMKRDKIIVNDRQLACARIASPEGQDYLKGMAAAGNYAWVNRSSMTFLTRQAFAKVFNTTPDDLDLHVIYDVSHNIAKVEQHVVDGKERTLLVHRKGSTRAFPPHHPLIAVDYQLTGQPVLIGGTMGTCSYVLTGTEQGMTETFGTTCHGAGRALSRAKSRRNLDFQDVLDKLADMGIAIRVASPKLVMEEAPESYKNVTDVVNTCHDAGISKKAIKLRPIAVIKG
UniProt Q86VV8: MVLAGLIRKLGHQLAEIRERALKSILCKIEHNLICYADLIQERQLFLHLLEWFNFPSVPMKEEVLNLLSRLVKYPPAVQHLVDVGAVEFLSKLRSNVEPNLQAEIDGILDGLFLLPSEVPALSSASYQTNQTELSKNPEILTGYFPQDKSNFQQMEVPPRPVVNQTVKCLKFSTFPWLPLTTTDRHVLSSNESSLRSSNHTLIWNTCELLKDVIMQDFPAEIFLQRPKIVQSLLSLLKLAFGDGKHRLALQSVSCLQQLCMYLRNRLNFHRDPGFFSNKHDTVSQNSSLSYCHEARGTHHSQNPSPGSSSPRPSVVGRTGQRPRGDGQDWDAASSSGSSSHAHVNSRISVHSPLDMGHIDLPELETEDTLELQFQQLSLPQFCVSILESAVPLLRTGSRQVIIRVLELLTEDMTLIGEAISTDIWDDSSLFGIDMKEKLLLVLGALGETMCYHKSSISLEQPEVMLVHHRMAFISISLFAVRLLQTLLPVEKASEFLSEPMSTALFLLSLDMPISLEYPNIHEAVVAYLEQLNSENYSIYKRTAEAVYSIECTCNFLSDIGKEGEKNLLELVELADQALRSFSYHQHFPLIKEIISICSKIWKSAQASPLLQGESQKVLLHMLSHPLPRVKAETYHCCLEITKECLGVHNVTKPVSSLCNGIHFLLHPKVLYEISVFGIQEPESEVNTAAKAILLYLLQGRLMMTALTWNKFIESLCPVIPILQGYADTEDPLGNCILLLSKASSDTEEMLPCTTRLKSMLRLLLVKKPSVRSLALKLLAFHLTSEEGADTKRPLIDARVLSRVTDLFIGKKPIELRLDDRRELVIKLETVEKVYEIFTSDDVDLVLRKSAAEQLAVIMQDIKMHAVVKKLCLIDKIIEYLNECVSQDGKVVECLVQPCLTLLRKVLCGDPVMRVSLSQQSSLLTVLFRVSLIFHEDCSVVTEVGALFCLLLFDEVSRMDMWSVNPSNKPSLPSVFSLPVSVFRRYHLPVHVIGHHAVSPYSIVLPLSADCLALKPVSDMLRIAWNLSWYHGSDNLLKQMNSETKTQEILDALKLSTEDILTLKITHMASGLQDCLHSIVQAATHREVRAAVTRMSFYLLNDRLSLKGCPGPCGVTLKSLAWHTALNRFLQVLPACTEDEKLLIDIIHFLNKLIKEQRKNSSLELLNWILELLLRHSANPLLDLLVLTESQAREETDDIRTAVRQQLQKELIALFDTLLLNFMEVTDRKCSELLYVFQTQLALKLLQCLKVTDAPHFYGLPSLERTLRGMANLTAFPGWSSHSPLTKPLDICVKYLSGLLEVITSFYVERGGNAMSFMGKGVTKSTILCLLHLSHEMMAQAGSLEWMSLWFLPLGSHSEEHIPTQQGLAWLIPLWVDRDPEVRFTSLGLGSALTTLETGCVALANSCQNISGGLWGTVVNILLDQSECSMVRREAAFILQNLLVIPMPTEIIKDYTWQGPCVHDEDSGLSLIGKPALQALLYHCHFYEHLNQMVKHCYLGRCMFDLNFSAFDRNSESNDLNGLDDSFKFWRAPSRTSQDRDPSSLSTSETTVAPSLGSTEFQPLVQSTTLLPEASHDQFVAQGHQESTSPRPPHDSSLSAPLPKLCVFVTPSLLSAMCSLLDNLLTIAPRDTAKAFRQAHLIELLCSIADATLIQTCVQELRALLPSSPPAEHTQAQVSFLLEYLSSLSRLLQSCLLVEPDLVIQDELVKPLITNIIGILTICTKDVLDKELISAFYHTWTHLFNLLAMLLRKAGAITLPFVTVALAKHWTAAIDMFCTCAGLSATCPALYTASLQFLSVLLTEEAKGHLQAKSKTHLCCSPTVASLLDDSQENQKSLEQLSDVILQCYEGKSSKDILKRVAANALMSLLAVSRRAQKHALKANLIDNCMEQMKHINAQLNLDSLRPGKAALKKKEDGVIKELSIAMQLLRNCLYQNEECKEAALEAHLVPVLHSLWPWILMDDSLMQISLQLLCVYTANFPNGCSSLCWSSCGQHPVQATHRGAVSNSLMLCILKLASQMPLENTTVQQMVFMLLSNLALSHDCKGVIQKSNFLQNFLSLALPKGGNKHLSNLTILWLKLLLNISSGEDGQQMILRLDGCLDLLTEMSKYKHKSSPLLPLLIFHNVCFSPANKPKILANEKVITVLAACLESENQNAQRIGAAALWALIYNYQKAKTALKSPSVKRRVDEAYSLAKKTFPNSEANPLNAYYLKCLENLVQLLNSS
UniProt Q01196, whole entry, looked up: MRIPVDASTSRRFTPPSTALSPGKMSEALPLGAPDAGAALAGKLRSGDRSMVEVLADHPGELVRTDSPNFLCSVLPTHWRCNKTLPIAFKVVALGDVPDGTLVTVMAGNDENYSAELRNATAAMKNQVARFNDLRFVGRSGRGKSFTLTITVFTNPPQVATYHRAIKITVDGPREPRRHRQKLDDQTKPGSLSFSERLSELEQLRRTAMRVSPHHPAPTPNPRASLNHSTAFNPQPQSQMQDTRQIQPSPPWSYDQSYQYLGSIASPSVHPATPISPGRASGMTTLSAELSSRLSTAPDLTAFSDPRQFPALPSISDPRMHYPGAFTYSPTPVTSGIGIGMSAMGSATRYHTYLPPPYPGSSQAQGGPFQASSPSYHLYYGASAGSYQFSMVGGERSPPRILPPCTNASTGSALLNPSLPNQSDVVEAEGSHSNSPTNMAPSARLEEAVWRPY
UniProt P57060: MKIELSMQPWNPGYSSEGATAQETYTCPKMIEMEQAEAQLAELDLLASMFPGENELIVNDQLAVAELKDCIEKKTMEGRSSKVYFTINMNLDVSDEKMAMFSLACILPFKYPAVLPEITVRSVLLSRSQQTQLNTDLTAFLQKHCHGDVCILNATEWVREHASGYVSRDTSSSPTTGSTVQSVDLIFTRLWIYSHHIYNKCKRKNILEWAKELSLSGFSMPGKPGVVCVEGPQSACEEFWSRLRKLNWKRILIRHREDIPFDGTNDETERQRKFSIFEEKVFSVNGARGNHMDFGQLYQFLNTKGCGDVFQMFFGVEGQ

How the values were obtained:
Assay in all cases: log2 fold change, soluble protein after heating vs DMSO (PISA); higher = thermal stabilisation; K562 lysate, 10 uM; active = over 0.2 and 3.5 SD of the protein, either way, in both replicates (recomputed)
lapatinib = compound: CS(=O)(=O)CCNCc1ccc(-c2ccc3ncnc(Nc4ccc(OCc5cccc(F)c5)c(Cl)c4)c3c2)o1 [lapatinib]
Outline: (§1)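 Log-two fold change in thermal stability relative to solvent controls is reported from duplicates. For each sample, crude K562 extract from dounce-homogenised pellets in PBS pH 7.4 with 1 mM MgCl2, at 1 mg/mL protein, was treated with 10 μM compound for 30 min. Aliquots heated for 3 min across 48°C-58°C were pooled, brought to 0.5% NP-40 at 4°C and cleared at 21,000xg for 90 min. The supernatant was quantified by TMTpro 16plex LC-MS/MS with channel sums equalised.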

pictilisib = compound: CS(=O)(=O)N1CCN(Cc2cc3nc(-c4cccc5[nH]ncc45)nc(N4CCOCC4)c3s2)CC1 [pictilisib]
Outline: as §1

crizotinib = compound: C[C@@H](Oc1cc(-c2cnn(C3CCNCC3)c2)cnc1N)c1c(Cl)ccc(F)c1Cl [crizotinib]
Outline: as §1

[1] = compound: C[C@H](C1=CC=C(C=C1)C(=O)NC2=C3C=CNC3=NC=C2)N
Outline: as §1

duvelisib = compound: C[C@H](Nc1ncnc2nc[nH]c12)c1cc2cccc(Cl)c2c(=O)n1-c1ccccc1 [duvelisib]
Outline: as §1

gandotinib = compound: Cc1cc(Nc2cc(CN3CCOCC3)c3nc(C)c(Cc4ccc(Cl)cc4F)n3n2)n[nH]1 [gandotinib]
Outline: as §1

tozasertib = compound: Cc1cc(Nc2cc(N3CCN(C)CC3)nc(Sc3ccc(NC(=O)C4CC4)cc3)n2)n[nH]1 [tozasertib]
Outline: as §1

doramapimod = compound: Cc1ccc(-n2nc(C(C)(C)C)cc2NC(=O)Nc2ccc(OCCN3CCOCC3)c3ccccc23)cc1 [doramapimod]
Outline: as §1

bafetinib = compound: Cc1ccc(NC(=O)c2ccc(CN3CC[C@H](N(C)C)C3)c(C(F)(F)F)c2)cc1Nc1nccc(-c2cncnc2)n1 [bafetinib]
Outline: as §1

[2] = compound: Cc1cccc(CC(=O)N2CCc3c2ccc(-c2cn(C)c4ncnc(N)c24)c3F)n1
Outline: as §1

dasatinib = compound: Cc1nc(Nc2ncc(C(=O)Nc3c(C)cccc3Cl)s2)cc(N2CCN(CCO)CC2)n1 [dasatinib]
Outline: as §1

[3] = compound: Cn1cc(-c2ccc3c(c2)CCN3C(=O)Cc2cccc(C(F)(F)F)c2)c2c(N)ncnc21
Outline: as §1

quisinostat = compound: Cn1cc(CNCC2CCN(c3ncc(C(=O)NO)cn3)CC2)c2ccccc21 [quisinostat]
Outline: as §1

[4] = compound: NC(=O)Nc1cc(-c2cccc(F)c2)sc1C(=O)N[C@H]1CCCNC1
Outline: as §1

[5] = compound: NC(=O)c1cnc(N[C@@H]2CCCC[C@@H]2N)nc1Nc1cccc(-n2nccn2)c1
Outline: as §1

[6] = compound: NC1(c2ccc(-c3nc4ccn5c(=O)[nH]nc5c4cc3-c3ccccc3)cc2)CCC1
Outline: as §1

nilotinib = compound: Cc1cn(-c2cc(NC(=O)c3ccc(C)c(Nc4nccc(-c5cccnc5)n4)c3)cc(C(F)(F)F)c2)cn1 [nilotinib]
Outline: as §1

[7] = compound: Cc1nc(Nc2n[nH]c3c2CN(C(=O)N[C@H](CN(C)C)c2ccccc2)C3(C)C)c2sccc2n1
Outline: as §1

[8] = compound: Cc1ncc(-c2ccnc(Nc3ccc(S(C)(=O)=O)cc3)n2)n1C(C)C
Outline: as §1

tipifarnib = compound: Cn1cncc1[C@@](N)(c1ccc(Cl)cc1)c1ccc2c(c1)c(-c1cccc(Cl)c1)cc(=O)n2C [tipifarnib]
Outline: as §1

Measured: log2 fold change

RSAD1 (UniProt Q9HA92)
inactive: lapatinib -0.161 | pictilisib -0.112 | crizotinib -0.137 | [1] -0.388 | duvelisib -0.08 | gandotinib 0.484 | tozasertib -0.207 | doramapimod 0.03 | bafetinib -0.118 | [2] 0.221 | dasatinib 0.203 | [3] -0.187 | quisinostat 0.074 | [4] -0.071 | [5] 0.076 | [6] -0.146

RPS15 (UniProt P62841)
inactive: lapatinib -0.013 | pictilisib -0.022 | crizotinib -0.05 | [1] -0.134 | duvelisib 0.015 | gandotinib 0.127 | tozasertib -0.049 | doramapimod 0.03 | bafetinib -0.017 | [2] 0.154 | nilotinib 0.011 | [7] -0.011 | dasatinib 0.007 | [8] -0.053 | [3] -0.038 | quisinostat -0.097 | tipifarnib 0.008 | [4] 0.013 | [5] -0.004 | [6] 0.002

RPS14 (UniProt P62263)
inactive: lapatinib 0.013 | pictilisib 0.03 | crizotinib -0.011 | [1] -0.082 | duvelisib -0.018 | gandotinib 0.048 | tozasertib -0.027 | doramapimod -0.015 | bafetinib -0.046 | [2] 0.05 | nilotinib 0.021 | [7] -0.008 | dasatinib -0.013 | [8] 0.027 | [3] -0.013 | quisinostat 0.042 | tipifarnib -0.009 | [4] 0.006 | [5] -0.01 | [6] -0.018

S100A14 (UniProt Q9HCY8)
inactive: lapatinib 0.15 | pictilisib 0.432 | duvelisib -0.353 | tozasertib 0.138 | bafetinib -0.123 | dasatinib 0.357 | [3] -0.089 | [5] 0.331 | [6] 0.165

RRM1 (UniProt P23921)
inactive: lapatinib 0.003 | pictilisib 0.01 | crizotinib -0.025 | [1] -0.004 | duvelisib -0.052 | gandotinib -0.028 | tozasertib -0.036 | doramapimod -0.017 | bafetinib -0.018 | [2] 0.001 | nilotinib -0.003 | [7] 0.008 | dasatinib -0.026 | [8] 0.001 | [3] 0.016 | quisinostat -0.018 | tipifarnib 0.007 | [4] 0.016 | [5] -0.002 | [6] -0.038

RTCB (UniProt Q9Y3I0)
inactive: lapatinib -0.007 | pictilisib 0.017 | crizotinib 0.018 | [1] -0.019 | duvelisib 0.009 | gandotinib -0.022 | tozasertib 0.017 | doramapimod 0.028 | bafetinib -0.044 | [2] -0.03 | nilotinib -0.027 | [7] -0.005 | dasatinib -0.009 | [8] -0.029 | [3] 0.011 | quisinostat 0.04 | tipifarnib 0.011 | [4] -0.009 | [5] 0.007 | [6] 0.021

RPLP0 (UniProt P05388)
inactive: lapatinib -0.084 | pictilisib -0.001 | crizotinib -0.039 | [1] -0.012 | duvelisib 0.01 | gandotinib 0.017 | tozasertib -0.005 | doramapimod -0.005 | bafetinib 0.025 | [2] -0.017 | nilotinib 0.008 | [7] -0.032 | dasatinib -0.042 | [8] 0.017 | [3] 0.011 | quisinostat -0.006 | tipifarnib 0.014 | [4] -0.03 | [5] -0.019 | [6] -0.014

RTTN (UniProt Q86VV8)
inactive: lapatinib 0.306 | pictilisib -0.034 | [1] -0.053 | duvelisib 0.067 | gandotinib -0.289 | tozasertib -0.07 | bafetinib -0.032 | [2] 0.203 | nilotinib -0.102 | [7] 0.14 | dasatinib -0.086 | [8] -0.003 | [3] -0.161 | tipifarnib -0.069 | [5] -0.282 | [6] 0.216

RUNX1 isoform 8 (UniProt Q01196)
inactive: lapatinib -0.049 | pictilisib -0.049 | crizotinib 0.132 | [1] -0.017 | duvelisib 0.015 | gandotinib 0.003 | tozasertib 0.064 | doramapimod 0.048 | bafetinib -0.002 | [2] -0.056 | nilotinib -0.016 | [7] 0.021 | dasatinib -0.01 | [8] 0.002 | [3] 0.072 | quisinostat -0.022 | tipifarnib -0.054 | [4] 0.108 | [5] 0.011 | [6] 0.101

RWDD2B (UniProt P57060)
inactive: lapatinib 0.029 | pictilisib -0.15 | crizotinib 0.141 | duvelisib -0.007 | tozasertib -0.044 | doramapimod -0.005 | bafetinib 0.089 | nilotinib 0.066 | [7] -0.026 | dasatinib 0.05 | [8] -0.054 | [3] -0.02 | quisinostat 0.163 | tipifarnib -0.264 | [4] 0.017 | [5] 0.042 | [6] 0.068
